Values from PubChem BioAssay AID1259308 (NCATS, 2017)
The whole screen tested about 59,000 reagents; below is an unselected part. About 1,510 of them (2.6%) were called active. 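Calls use total luciferase alone and ignore viability, so some active siRNAs may act by altering cell number.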 Reagents against one gene are numbered here.

Purpose: 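Knock-downs that increase output of a recombinant reporter protein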 (primary screen)
Cells: human HEK293 embryonic kidney cells stably expressing firefly luciferase (HEK-CMV-Luc2-Hygro)
Knock-down reagent: single siRNA against human genes, 0.8 pmol siRNA per well
Duration: 72 h
Detection: 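Luciferase light (ONE-Glo) measured on one replicate plate set and viability (CellTiter-Glo) on the other, scaled to a negative control siRNA, with robust z-scores and luciferase per cell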
Scale: total luciferase, z-score and total luciferase, % of control: higher = more reporter protein produced; luciferase per cell, z-score: higher = more reporter output per viable cell; viable cells, % of control: higher = more viable cells
Hit rule: 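An siRNA counts as active if its total luciferase robust z-score exceeds 3; genes with two or more such siRNAs out of three were retested with fresh siRNAs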
Calls: active = raised luciferase; inactive = no rise

no.	gene symbol	siRNA no.	total luciferase, z-score	total luciferase, % of control	luciferase per cell, z-score	viable cells, % of control	Outcome
1	SNX22	1	-0.0829	80.2	-0.58	104	inactive
2	SNX22	2	-0.462	72.7	2.2	45.5	inactive
3	SNX22	3	-0.318	75.6	0.29	78.2	inactive
4	GPATCH8	1	-0.136	79.2	-0.0584	89.9	inactive
5	GPATCH8	2	1.27	107	0.838	96	inactive
6	GPATCH8	3	2.12	124	1.87	84.8	inactive
7	PSMA3	1	0.613	94.1	1.54	70.2	inactive
8	PSMA3	2	-1.79	46.2	-1.25	71.8	inactive
9	PSMA3	3	-0.885	64.3	0.109	69.8	inactive
10	SLC6A3	1	-1.69	48.3	-1.42	78.5	inactive
11	SLC6A3	2	-1.32	55.7	-1.15	84.2	inactive
12	SLC6A3	3	1.47	111	0.759	102	inactive
13	WFDC3	1	-0.407	73.8	-0.728	99.9	inactive
14	WFDC3	2	-0.25	76.9	0.131	83	inactive
15	WFDC3	3	0.0416	82.7	-0.147	96.1	inactive
16	ABCB4	1	0.114	84.1	-0.484	107	inactive
17	ABCB4	2	0.165	85.2	-0.399	106	inactive
18	ABCB4	3	0.422	90.3	0.128	97.5	inactive
19	GPR75	1	0.393	89.7	0.554	86.6	inactive
20	GPR75	2	0.492	91.7	0.287	95	inactive
21	GPR75	3	-1.32	55.7	-0.00895	62.4	inactive
22	UBE2U	1	0.23	86.5	-0.0326	97.5	inactive
23	UBE2U	2	1.68	115	2.08	74.6	inactive
24	UBE2U	3	-1.08	60.4	-1.06	89.3	inactive

The list goes on; the last 3 above are carried over.
no.	gene symbol	siRNA no.	total luciferase, z-score	total luciferase, % of control	luciferase per cell, z-score	viable cells, % of control	Outcome
22	UBE2U	1	0.23	86.5	-0.0326	97.5	inactive
23	UBE2U	2	1.68	115	2.08	74.6	inactive
24	UBE2U	3	-1.08	60.4	-1.06	89.3	inactive
25	FCGR3A	1	-0.167	78.6	0.575	75.5	inactive
26	FCGR3A	2	-0.308	75.8	-0.551	97.9	inactive
27	FCGR3A	3	-1.03	61.4	-0.671	81.9	inactive
28	LOXL1	1	0.935	100	0.547	97.2	inactive
29	LOXL1	2	1.57	113	3.01	57.3	inactive
30	LOXL1	3	-1.32	55.6	-1.02	81.2	inactive
31	ORC5	1	-0.644	69.1	-1.04	101	inactive
32	ORC5	2	1.69	116	1.89	78.6	inactive
33	ORC5	3	-1.45	53.1	-1.85	96.7	inactive
34	VSTM5	1	0.0949	83.8	0	93.6	inactive
35	VSTM5	2	0.773	97.3	0.348	99.2	inactive
36	VSTM5	3	0.419	90.2	-0.0027	101	inactive
37	SEC61A1	1	-0.0805	80.3	-0.162	93.6	inactive
38	SEC61A1	2	3	142	2.05	92.3	active
39	SEC61A1	3	-0.79	66.2	-0.731	89.6	inactive
